Data as given in PubChem BioAssay AID1053208 (Peter MacCallum Cancer Centre, 2014)

- Test: 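Synthetic lethal interactions between gene loss and doxorubicin in osteosarcoma cells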 (primary screen)
- System: mouse osteosarcoma cells, early-passage culture from an engineered mouse model of fibroblastic bone tumour
- Reagents: siRNA pool against mouse genes, 40 nM
- Duration: about 120 h (48 h before drug, then 72 h with drug)
- Challenge: doxorubicin 100 nM for 72 h, roughly 30-40% inhibitory dose
- Read-out: 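Luminescent ATP signal taken as viability with or without 100 nM doxorubicin for 72 h; mean of two wells set against non-targeting siRNA and turned into robust z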
- Reading the numbers: viability z-score with doxorubicin: higher = more viable cells under doxorubicin; viability z-score without drug: higher = more viable cells with knock-down alone
- Rule for the call: 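Called active if knock-down leaves viability unchanged without drug (z within -2 to 2) but lowers it with doxorubicin (z at or under -2)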
Shown is one part, drawn at random, of about 17,000 deposited reagents. In the full data, 788 (4.7%) were called active. 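Calls rest on z-score classes alone; an extra cut-off of viability at most 70% of control was not applied to them.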 A number with no mark means an inactive call. Not all columns of the deposit are shown. No sequences are given here.

Gene | combined z-score class | viability z-score with doxorubicin | viability z-score without drug
Asic2 (acid-sensing ion channel 2) | no change with or without drug | 0.67 | 0.17
Dnajc10 (DnaJ heat shock protein family (Hsp40) member C10) | no change with or without drug | 1.12 | 1.69
Fbxo43 (F-box protein 43) | high cell count without drug only | 1.12 | 3.54
Zfp13 (zinc finger protein 13) | low cell count with doxorubicin only (active) | -2.92 | -1.01
Coro1c (coronin, actin binding protein 1C) | no change with or without drug | 0.67 | 0.17
Lamb2 (laminin, beta 2) | no change with or without drug | -0.22 | 1.52
Ddx24 (DEAD box helicase 24) | no change with or without drug | 0 | 0.51
Rai1 (retinoic acid induced 1) | no change with or without drug | -1.24 | -0.51
Tnmd (tenomodulin) | low cell count with doxorubicin only (active) | -2.02 | -0.84
Reps2 (RALBP1 associated Eps domain containing protein 2) | no change with or without drug | 0.45 | 0.51
Ntf3 (neurotrophin 3) | no change with or without drug | 0.34 | -0.51
Rcvrn (recoverin) | no change with or without drug | -0.56 | 0.17
Tmem170 (transmembrane protein 170) | high cell count with doxorubicin only | 2.02 | 1.52
Mrpl46 (mitochondrial ribosomal protein L46) | low cell count without drug only | -0.67 | -2.87
Tlr12 (toll-like receptor 12) | no change with or without drug | 0.34 | -1.01
D2hgdh (D-2-hydroxyglutarate dehydrogenase) | no change with or without drug | -0.9 | 0
Trnt1 (tRNA nucleotidyl transferase, CCA-adding, 1) | no change with or without drug | 0.67 | -0.17
Slc2a9 | no change with or without drug | 0.22 | -1.69
Cdkn3 (cyclin dependent kinase inhibitor 3) | low cell count without drug only | -0.67 | -2.53
Rpp25l (ribonuclease P/MRP 25 subunit-like) | no change with or without drug | -0.45 | -0.84
Rnasel | no change with or without drug | 0.67 | 0.84
Pdxp (pyridoxal (pyridoxine, vitamin B6) phosphatase) | no change with or without drug | -0.45 | 0.17
SCN1A | no change with or without drug | -0.45 | 0.17
Ddx56 (DEAD box helicase 56) | no change with or without drug | -0.9 | -0.51
Got1 (glutamic-oxaloacetic transaminase 1, soluble) | no change with or without drug | 0.45 | -0.17
Zmat2 (zinc finger, matrin type 2) | no change with or without drug | -0.67 | 0.17
Ergic2 (ERGIC and golgi 2) | no change with or without drug | -0.22 | 0.67
Hps6 (HPS6, biogenesis of lysosomal organelles complex 2 subunit 3) | low cell count with doxorubicin only (active) | -2.92 | -0.67
Dhodh (dihydroorotate dehydrogenase) | no change with or without drug | 1.24 | 0.84
Atp8b3 (ATPase, class I, type 8B, member 3) | no change with or without drug | 0.22 | -0.17
Slc38a3 | no change with or without drug | -1.12 | 0.17
Prpf40a (pre-mRNA processing factor 40A) | no change with or without drug | -0.56 | 0.34
Pikfyve (phosphoinositide kinase, FYVE type zinc finger containing) | no change with or without drug | -0.67 | 0.34
Stk38l (serine/threonine kinase 38 like) | no change with or without drug | -1.35 | -1.69

Entries above with an active call:
Gene | combined z-score class | viability z-score with doxorubicin | viability z-score without drug
Zfp13 (zinc finger protein 13) | low cell count with doxorubicin only (active) | -2.92 | -1.01
Tnmd (tenomodulin) | low cell count with doxorubicin only (active) | -2.02 | -0.84
Hps6 (HPS6, biogenesis of lysosomal organelles complex 2 subunit 3) | low cell count with doxorubicin only (active) | -2.92 | -0.67
